The values below come from the supplement of paper PMC6331611.

SMILES strings stand for the structures. “And” between values parts separate entries of the source, which are not always exact repeats. Equal entries are not always repeated. ± gives the standard deviation of the averaged measurements. In all, about 1,600 compounds were measured (“normalized growth (OD600, IQM-normalized) in LPM”: median about 1, lowest 2% from about 0.014 on). The list shows a part of the results.

The subject of this assay is Salmonella enterica serovar Typhimurium SL1344. The assay can be described thus: normalized growth (OD600, IQM-normalized) in LPM (fraction of plate interquartile mean); higher = more bacterial growth (less inhibition). Conditions: LPM pH 5.8; 10 µM; 16 h.
`CCCc1nc(C(C)(C)O)c(C(=O)OCc2oc(=O)oc2C)n1Cc1ccc(-c2ccccc2-c2nnn[nH]2)cc1` yielded a normalized growth of 1.005 ± 0.0069.

`C=C(NC(=O)C(=C)NC(=O)c1csc(C2=N[C@@H]3c4csc(n4)[C@H]4NC(=O)c5csc(n5)[C@H]([C@](C)(O)[C@@H](C)O)NC(=O)[C@H]5CSC(=N5)/C(=C/C)NC(=O)[C@H]([C@@H](C)O)NC(=O)c5csc(n5)[C@]3(CC2)NC(=O)[C@H](C)NC(=O)C(=C)NC(=O)[C@H](C)NC(=O)[C@H]([C@@H](C)CC)N[C@@H]2C=Cc3c([C@H](C)O)cc(nc3[C@H]2O)C(=O)O[C@@H]4C)n1)C(N)=O` showed a normalized growth of 1 ± 0.09.

On to `O=C(O)CCc1nc2ccccc2[nH]1`, for which the normalized growth stood at 1.05 ± 0.12.

Regarding `C[C@@H]1CC2C3C[C@H](F)C4=CC(=O)C=C[C@]4(C)[C@@]3(F)[C@@H](O)C[C@]2(C)[C@@]1(O)C(=O)COC(=O)C(C)(C)C` (stereo not given in full), the normalized growth worked out at 1.04 ± 0.12.

Consider `CCCCCCCCCCCCCCCC[N+](C)(C)C`, for which the normalized growth is 0.982 ± 0.038.

`NC(=O)C1(N2CCCCC2)CCN(CCCC(=O)c2ccc(F)cc2)CC1` yielded a normalized growth of 1.02 ± 0.051.

In turn, `CC1=C(C(=O)O)N2C(=O)[C@@H](NC(=O)[C@H](N)c3ccc(O)cc3)[C@H]2SC1` had a normalized growth of 1.06 ± 0.054.

The compound `CC(C)(Oc1ccc(C2CC2(Cl)Cl)cc1)C(=O)O` (stereo not given) had a normalized growth of 0.881 ± 0.036.

In the case of `Nc1ccc(S(N)(=O)=O)cc1`, the normalized growth was 1.01 ± 0.049.

In the case of `CCOc1nc2cccc(C(=O)OC(C)OC(=O)OC3CCCCC3)c2n1Cc1ccc(-c2ccccc2-c2nn[nH]n2)cc1` (stereo not given), the normalized growth is 0.878 ± 0.018.

For `CC(CCc1ccc(O)cc1)NCCc1ccc(O)c(O)c1` (stereo not given), the normalized growth was 0.837 ± 0.066.

In turn, `CC[C@]12CCCN3CCc4c(n(c5ccccc45)[C@@](O)(C(=O)OC)C1)[C@@H]32` gave a normalized growth of 0.962 ± 0.19.

For `CCC(C)(C)c1ccc(CC(C)CN2C[C@@H](C)O[C@@H](C)C2)cc1` (stereo not given in full), the normalized growth was 1.02 ± 0.017.

`Nc1nc(N)nc(-c2cc(Cl)ccc2Cl)n1` gave a normalized growth of 1.02 ± 0.018.

In turn, `CCN1CCCC1CNC(=O)c1cc(S(=O)(=O)CC)c(N)cc1OC` (stereo not given) showed a normalized growth of 1 ± 0.02.

`S=P(N1CC1)(N1CC1)N1CC1` had a normalized growth of 1.12 ± 0.039.

Compound `CCCCOc1ccc(OCCCN2CCOCC2)cc1` returned a normalized growth of 0.817 ± 0.045.

In turn, `CC1CCc2cc(F)cc3c(=O)c(C(=O)O)cn1c23` (stereo not given) had a normalized growth of 0.0174 ± 0.0072.

Compound `CC(C)c1nc(CN(C)C(=O)N[C@H](C(=O)N[C@@H](Cc2ccccc2)C[C@H](O)[C@H](Cc2ccccc2)NC(=O)OCc2cncs2)C(C)C)cs1` had a normalized growth of 0.886 ± 0.029.

In the case of `COc1ccccc1OCCNCC(O)COc1cccc2[nH]c3ccccc3c12` (stereo not given), the normalized growth is 0.925 and 1.17.

In turn, `CC(C)[C@H]1CC[C@H](C(=O)N[C@H](Cc2ccccc2)C(=O)O)CC1` gave a normalized growth of 0.939 ± 0.041.

`CC(=O)Oc1cccc(C(=O)O)c1OC(C)=O` displayed a normalized growth of 0.912 ± 0.079.

With `CCn1cc(C(=O)O)c(=O)c2cc(F)c(N3CCNCC3)cc21`, the normalized growth worked out at 0.0247 ± 0.0053.

`CCOC(=O)C1=C(C)NC(C)=C(C(=O)OC)C1c1cccc([N+](=O)[O-])c1` (stereo not given) showed a normalized growth of 1.1 ± 0.05.

On to `CC1(C)S[C@@H]2[C@H](N3C(=O)[C@@H](c4ccccc4)NC3(C)C)C(=O)N2[C@H]1C(=O)O`, for which the normalized growth amounted to 0.976 ± 0.053.

Turning to `NS(=O)(=O)c1cc2c(cc1C(F)(F)F)NC(Cc1ccccc1)NS2(=O)=O` (stereo not given), the normalized growth was 1.15 ± 0.013.

For `CC(CN1c2ccccc2Sc2ccccc21)N(C)C` (stereo not given), the normalized growth worked out at 1.06 ± 0.05.

Turning to `O=C(c1ccc(OCCN2CCCCC2)cc1)c1c(-c2ccc(O)cc2)sc2cc(O)ccc12`, the normalized growth came to 0.973 ± 0.019.

The compound `Cc1onc(-c2ccccc2)c1C(=O)N[C@@H]1C(=O)N2[C@@H]1SC(C)(C)[C@@H]2C(=O)O` returned a normalized growth of 0.999 ± 0.063.

Take `CCCC(CCC)C(=O)O`: the normalized growth is 0.955 ± 0.071.

As to `CN(C)CCCC1(c2ccc(F)cc2)OCc2cc(C#N)ccc21` (stereo not given), the normalized growth was 1.1 ± 0.062.

For `CNC(=O)c1c(I)c(NC(C)=O)c(I)c(C(=O)O)c1I`, the normalized growth was 0.957 ± 0.015.

Regarding `CCC(=O)NCC[C@@H]1CCc2ccc3c(c21)CCO3`, the normalized growth was 1.11 ± 0.046.

`OCC(O)CN1CCN(c2ccccc2)CC1` (stereo not given) showed a normalized growth of 1.02 ± 0.095.

For the compound `CC(O)CC(C)(C)O` (stereo not given), the normalized growth was 1.058 ± 0.006.

The compound `COc1ccc2cc1Oc1ccc(cc1)C[C@H]1c3c(cc4c(c3Oc3cc5c(cc3OC)CCN(C)[C@@H]5C2)OCO4)CCN1C` returned a normalized growth of 0.938 ± 0.024.

The compound `CCOC(=O)c1ccc(O)cc1` came in with a normalized growth of 1.02 ± 0.045.

In the case of `Cc1c(OCC(F)(F)F)ccnc1C[S+]([O-])c1nc2ccccc2[nH]1` (stereo not given), the normalized growth came out at 1.054 ± 0.0058.

Compound `O=C([O-])C(O)[C@H](O)[C@@H](O)[C@H](O)[C@H](O)CO.O=C([O-])C(O)[C@H](O)[C@@H](O)[C@H](O)[C@H](O)CO.[Ca+2]` (stereo not given in full) displayed a normalized growth of 0.966 ± 0.061.

Take `CC(C)(C)NCC(O)c1ccc(O)c(CO)c1` (stereo not given): the normalized growth was 0.99 ± 0.059.

For `CCC1(C)CC(=O)NC1=O` (stereo not given), the normalized growth stood at 0.9521 ± 0.008.

For `NC1CCN(c2c(F)cc3c(=O)c(C(=O)O)cn(C4CC4)c3c2Cl)C1` (stereo not given), the normalized growth stood at 0.0132 ± 0.00024.

`CC(=O)Nc1ccc(OC(C)=O)cc1`: the normalized growth turned out to be 1.05 ± 0.08.

For `CC(NCCc1ccc(O)cc1)C(O)c1ccc(O)cc1` (stereo not given), the normalized growth came out at 0.839 ± 0.025.

`CCCNC(C)(C)COC(=O)c1ccccc1` had a normalized growth of 0.983 ± 0.027.

Compound `O=S(=O)(c1cccc2cnccc12)N1CCCNCC1` showed a normalized growth of 1.11 ± 0.028.

`CCc1nn(CCCN2CCN(c3cccc(Cl)c3)CC2)c(=O)n1CCOc1ccccc1` registered a normalized growth of 0.96 ± 0.029.

Compound `CCOC(=O)CC(=O)N1CCSC1COc1ccccc1OC` (stereo not given) had a normalized growth of 1.07 ± 0.025.

As to `CCC(C)(C)C(=O)O[C@H]1C[C@@H](C)C=C2C=C[C@H](C)[C@H](CC[C@@H]3C[C@@H](O)CC(=O)O3)[C@H]21`, the normalized growth stood at 0.777 ± 0.071.

For the compound `C[C@@H]1CN(c2c(F)c(F)c3c(=O)c(C(=O)O)cn(C4CC4)c3c2F)C[C@H](C)N1`, the normalized growth was found to be 0.0487 ± 0.0099.
